Test results as given in patent publication US20070015733A1, “Aryl Phosphate Derivatives of d4T having Activity Against Resistant HIV Strains” (Parker Hughes Institute, priority 1998, published 2007).
For some of these results: At least one compound was matched to its structure with a doubt left. Some of these results come from one statement about several compounds together.

What was measured:
HIV-1 (strain: HTLVIIIB) = assay type: cell-based; settings: PBMNC; unit not given in Table 5 (0.04 = 40 nM); read-out: PBMNC IC50 [RT]
Procedure: Percent inhibition of viral replication was calculated by comparing the p24 and RT activity values from the test substance-treated infected cells with those from untreated infected cells. In parallel, the cytotoxicity of the compounds was examined using a microculture tetrazolium assay (MTA) of cell proliferation, as described.in the Zarling, Enrice, and Uckun articles Supra).
(§1) Cellular Assays of Anti-HIV Activity and Cytotoxicity. […] Percent viral inhibition was calculated by comparing the RT activity values from the test substance-treated infected cells with RT values from untreated infected cells (i.e., virus controls).

[1] = Pharmacokinetics after intravenous or oral administration; assay type: in vivo, mice; settings: intravenous administration
HIV-2 (Strain: CBL-20) = assay: Inhibition of HIV-2 replication in PBMNC (RT activity); assay type: cell-based
Procedure: (P-AZT) and with AZT. The incubation and analysis methods used were as described above for Example 3.
as §1

[2] = system: AZT- and NNI-resistant HIV-1 (strain: RTMDR-1); assay: Inhibition of RTMDR-1 (HIV-MDR) replication in PBMNC (RT activity); assay type: cell-based
Procedure: as §1

[3] = Alkaline chemical hydrolysis rate (NaOH/methanol, HPLC); assay type: physicochemical; settings: alkali hydrolysis
Procedure: All chemicals were purchased from Aldrich (Milwaukee, Wis.), with the exception of d4T which was synthesized in-house. All syntheses were performed under a nitrogen atmosphere. ^1H, ^13C, and ^31P NMR were obtained on a Varian Mercury 300 instrument at ambient temperature in CDCl3. FT-IR spectra were recorded on a Nicolet Protege 460 spectrometer. MALDI-TOF mass spectra were obtained by using a Finnigan MAT 95 system. UV spectra were recorded by using a Beckmann UV-VIS spectrophotometer (Model 3DU 74000) with a cell path length of 1 cm. HPLC purification was achieved by using a reverse-phase Lichrospher column (250×4 mm, Hewlett-Packard, RP-18, Cat # 79925) and an isocratic flow (1 ml/minute) consisting of water (70%) and acetonitrile (30%). The alkaline chemical hydrolysis was conducted at room temperature with sodium hydroxide (1 ml of 0.05N) and 3 ml of methanol solution containing 10 mg of the substrates in a Teflon lined reaction vial. […] The disappearance of the starting material was monitored as a function of time. […]
Statistical Analysis. The IC50 values were calculated from each set of triplicate wells using nonlinear regression modeling of the exponential form of the linearized equation. […] Hydrolysis rates were determined by fitting single exponential decay equations to the disappearance of the compound in alkali conditions. […]

Molecule	IC50 (HIV-1 (strain: HTLVIIIB))	time until completely metabolized [1]	other results
COC(=O)[C@H](C)NP(=O)(OC[C@@H]1CC[C@H](n2cc(C)c(=O)[nH]c2=O)O1)Oc1ccccc1 (stereo partly shown) [Compound 2a]	1.2 to 3.1 µM	–	–
COC(=O)[C@H](C)NP(=O)(OC[C@@H]1C=C[C@H](n2cc(C)c(=O)[nH]c2=O)O1)Oc1ccc(Br)cc1 (stereo partly shown)	–	≤ 30 min	–
3dT-5′-(para-bromophenyl methoxyalaninyl phosphate) [Compound 2d]	1.2 to 3.1 µM	–	–
COC(=O)[C@H](C)NP(=O)(OCC1C=CC(n2cc(C)c(=O)[nH]c2=O)O1)Oc1ccc(Br)cc1 (stereo partly shown)	–	≤ 30 min	–
COC(=O)C(C)NP(=O)(OC[C@@H]1C=C[C@H](n2cc(C)c(=O)[nH]c2=O)O1)Oc1ccc(Br)cc1 (stereo partly shown) [Compound 1c, d4T-5′-[p-bromo-phenylmethoxyalaninyl phosphate]]	–	–	antiviral activity against HIV-2 (in words) (HIV-2 (Strain: CBL-20)): moderate activity; antiviral activity against RTMDR-1 (in words) [2]: potent antiviral activity; Hydrolysis Rate [3]: 0.0210 min⁻¹
